# Measured values published in publication PMC10977894.
# Sequences of proteins named here, by UniProt entry; tags and fusion partners are left off. Residues count along the entry.
# UniProt P03428, residues 1-247: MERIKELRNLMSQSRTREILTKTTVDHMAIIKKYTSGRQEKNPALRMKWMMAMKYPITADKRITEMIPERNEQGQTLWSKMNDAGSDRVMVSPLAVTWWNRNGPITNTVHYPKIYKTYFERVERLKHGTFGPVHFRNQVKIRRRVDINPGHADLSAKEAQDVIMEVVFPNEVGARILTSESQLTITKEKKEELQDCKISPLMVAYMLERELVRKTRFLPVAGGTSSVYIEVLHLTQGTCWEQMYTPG
# UniProt P46379: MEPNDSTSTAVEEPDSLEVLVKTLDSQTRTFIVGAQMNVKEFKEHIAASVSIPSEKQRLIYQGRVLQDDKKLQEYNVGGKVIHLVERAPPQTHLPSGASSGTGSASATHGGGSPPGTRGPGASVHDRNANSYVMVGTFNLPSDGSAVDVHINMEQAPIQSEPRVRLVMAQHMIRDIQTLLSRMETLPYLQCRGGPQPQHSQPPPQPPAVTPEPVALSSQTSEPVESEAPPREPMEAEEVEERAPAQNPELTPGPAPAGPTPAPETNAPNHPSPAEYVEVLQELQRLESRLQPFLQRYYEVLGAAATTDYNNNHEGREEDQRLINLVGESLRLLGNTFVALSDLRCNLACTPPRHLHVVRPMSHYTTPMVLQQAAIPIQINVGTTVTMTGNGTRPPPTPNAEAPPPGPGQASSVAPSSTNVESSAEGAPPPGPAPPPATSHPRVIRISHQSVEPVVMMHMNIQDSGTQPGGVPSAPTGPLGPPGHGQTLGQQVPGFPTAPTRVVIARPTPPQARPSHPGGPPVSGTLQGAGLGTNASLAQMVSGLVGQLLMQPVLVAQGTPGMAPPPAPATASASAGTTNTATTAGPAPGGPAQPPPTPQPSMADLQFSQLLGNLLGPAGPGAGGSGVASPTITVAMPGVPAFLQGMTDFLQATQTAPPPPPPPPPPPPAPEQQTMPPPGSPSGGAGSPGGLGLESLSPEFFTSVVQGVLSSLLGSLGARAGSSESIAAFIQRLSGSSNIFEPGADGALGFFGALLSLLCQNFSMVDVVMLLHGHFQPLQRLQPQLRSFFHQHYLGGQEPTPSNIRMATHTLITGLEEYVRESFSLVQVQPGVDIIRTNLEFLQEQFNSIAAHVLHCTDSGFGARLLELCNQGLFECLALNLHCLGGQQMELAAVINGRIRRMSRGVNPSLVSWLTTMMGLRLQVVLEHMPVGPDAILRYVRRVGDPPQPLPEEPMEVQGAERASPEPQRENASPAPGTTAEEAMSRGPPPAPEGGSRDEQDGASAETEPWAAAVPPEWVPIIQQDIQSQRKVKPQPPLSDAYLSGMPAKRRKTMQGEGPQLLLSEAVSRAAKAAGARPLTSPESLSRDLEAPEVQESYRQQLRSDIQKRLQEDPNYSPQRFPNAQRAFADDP
# UniProt P03466: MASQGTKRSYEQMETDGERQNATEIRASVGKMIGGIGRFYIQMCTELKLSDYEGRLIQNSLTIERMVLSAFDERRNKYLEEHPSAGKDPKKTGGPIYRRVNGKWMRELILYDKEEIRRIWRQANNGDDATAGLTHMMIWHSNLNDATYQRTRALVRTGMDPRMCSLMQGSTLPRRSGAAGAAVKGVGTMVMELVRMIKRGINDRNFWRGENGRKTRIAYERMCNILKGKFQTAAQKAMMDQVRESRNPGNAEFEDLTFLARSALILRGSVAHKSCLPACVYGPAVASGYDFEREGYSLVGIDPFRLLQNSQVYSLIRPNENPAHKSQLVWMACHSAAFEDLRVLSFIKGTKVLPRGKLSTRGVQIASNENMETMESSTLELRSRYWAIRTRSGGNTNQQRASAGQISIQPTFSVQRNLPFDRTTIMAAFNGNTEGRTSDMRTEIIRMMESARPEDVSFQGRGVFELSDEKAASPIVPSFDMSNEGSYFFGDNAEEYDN
# UniProt P03431: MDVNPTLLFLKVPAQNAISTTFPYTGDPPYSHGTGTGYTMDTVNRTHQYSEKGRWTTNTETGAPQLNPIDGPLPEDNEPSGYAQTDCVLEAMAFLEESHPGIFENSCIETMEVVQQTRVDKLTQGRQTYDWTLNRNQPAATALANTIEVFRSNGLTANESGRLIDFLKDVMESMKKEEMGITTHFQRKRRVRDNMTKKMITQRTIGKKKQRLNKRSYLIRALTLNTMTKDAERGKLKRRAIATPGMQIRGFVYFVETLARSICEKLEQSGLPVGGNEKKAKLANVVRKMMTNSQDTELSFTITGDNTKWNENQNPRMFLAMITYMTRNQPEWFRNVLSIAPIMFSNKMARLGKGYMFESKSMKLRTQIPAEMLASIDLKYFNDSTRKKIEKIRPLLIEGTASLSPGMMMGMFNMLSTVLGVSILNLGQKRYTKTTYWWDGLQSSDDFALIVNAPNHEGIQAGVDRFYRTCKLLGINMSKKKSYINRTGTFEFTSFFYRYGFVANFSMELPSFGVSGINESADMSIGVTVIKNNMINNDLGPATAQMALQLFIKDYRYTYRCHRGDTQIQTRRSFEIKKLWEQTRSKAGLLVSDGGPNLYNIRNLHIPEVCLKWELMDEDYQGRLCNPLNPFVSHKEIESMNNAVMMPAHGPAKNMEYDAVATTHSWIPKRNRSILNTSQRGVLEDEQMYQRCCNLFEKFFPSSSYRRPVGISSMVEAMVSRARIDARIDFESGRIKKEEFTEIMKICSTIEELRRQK
# These are yes or no findings as the source states them, for the method shown. In cells and extracts the contact can be indirect. Some binding calls cover weakened binding; strength is not graded here.
# Columns and labels:
# [1] = target: N-terminal PB2-Flag (residues 1-247) (influenza A virus (strain not stated)) (UniProt P03428); assay: co-IP
# [2] = target: BAG6-HA (BCL2-associated athanogene 6, full-length, HA-tagged) (UniProt P46379); assay: co-IP
Substance,binding [1],binding [2]
"BAG6-HA (BCL2-associated athanogene 6, full-length, HA-tagged) (from UniProt P46379 1-1132)",binds,
M1 of H1N1 PR8 virus in infected cells (from UniProt P03485 1-252),,no binding
NP-Flag (from UniProt P03466 1-498),,no binding
PB1-Flag (from UniProt P03431 1-757),,no binding
